Source: PubChem BioAssay AID504784 (Drosophila RNAi Screening Center, 2011)
In all, the deposit lists about 17,000 reagents; this is a random part of those with a known target gene and a result. 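Each column is one replicate's B-score; the combined score over replicates was not deposited, so single values may mislead.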 Names joined by + are all predicted targets of the reagent. Not all columns of the deposit are shown. No sequences are given here.

Screen: 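Search for regulators of lipid droplet storage in oleate-fed fly cells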 (primary screen)
System: Drosophila Kc167 embryonic cells
Knock-down reagent: long dsRNA against Drosophila genes, about 250 ng dsRNA per well
Duration: 4 days
Challenge: cells fed 400 µM oleic acid bound to BSA
Detection: 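Cells imaged and segmented; ratio of lipid droplet area to nuclear area, log-transformed, then normalised as a B-score over the screen; higher means more stored lipid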
Direction: droplet/nuclear area B-score: higher = more stored lipid (overstorage)

gene,amplicon,"droplet/nuclear area B-score, replicate 1","droplet/nuclear area B-score, replicate 2"
CG31274 + MESK4,DRSC13202,0.562,-1.71
Sfp93F,DRSC13505,-2.19,-3.76
Menl-2 + Menl-1,DRSC07469,0.681,-0.0858
Menl-2 + Menl-1,DRSC07470,-1.23,-1.45
Obp69a,DRSC11247,-0.397,-1.49
CG7556,DRSC20052,2.13,2.54
Ugt36D1,DRSC02600,-0.59,-0.00482
Bap55,DRSC07000,-1.23,2.26
gammaSnap1,DRSC04686,0.159,0.858
S-Lap3,DRSC10956,0.13,0.104
Or85a,DRSC16764,0.48,-0.0419
CG31515,DRSC13610,-0.182,1.17
Coq9,DRSC22913,0.474,0.774
fln,DRSC11346,0,-0.234
CAH16,DRSC15371,-0.277,
CG10927,DRSC06014,0.0266,0.756
DptA,DRSC07404,-0.14,-0.275
Gr63a,DRSC08438,-0.392,-0.18
CG8306,DRSC07141,2.26,1.17
CG14410,DRSC19596,0.56,0.513
Faf2,DRSC03325,-1.23,-0.308
CG15023,DRSC08477,1.38,-0.326
CG32713,DRSC22766,1.1,1.39
Wnt4,DRSC00976,0.47,-0.815
Wnt4,DRSC03477,0.0825,0.567
CG15483,DRSC02493,,0.132
CG7631,DRSC01873,-0.22,1.91
Cyp4d1,DRSC17694,-1.93,0.324
Cyp4d1,DRSC18456,-0.11,0.355
CG30375,DRSC06834,-0.297,0.102
Start1,DRSC04384,0.204,0.484
CG11396,DRSC11654,-0.0174,2.09
tj,DRSC02011,-0.039,2.35
CG16775,DRSC10225,-0.00504,-0.0153
CG31205,DRSC13438,1.45,-0.0188
CG14722,DRSC14944,0.953,-6.45
CG30278,DRSC22787,-0.12,-0.0325
a6,DRSC18733,1.55,0.674
CG30291,DRSC03842,-1.84,-1.34
EMC2B + EMC2A,DRSC15241,1.44,-0.00775
CG31551,DRSC12159,-2.32,0.919
CG31551,DRSC22403,-1.26,0.648
Dap160,DRSC03313,0.285,0.133
CG3604,DRSC00618,-0.0242,-0.499
rt,DRSC11391,-0.331,1.21
CG15343,DRSC18028,0.079,-0.000189
Jon99Ciii,DRSC16859,0.34,1.33
CG31924,DRSC00689,-1.11,-2.69
CG13390,DRSC02261,0.787,-0.143
Strip,DRSC08194,-0.37,-0.0997
Rcd5,DRSC08180,-0.327,2.07
CG10654,DRSC09767,1.49,1.29
CG9356,DRSC16476,0.275,4.56
ACXE,DRSC00847,-0.725,-0.0366
CG31872,DRSC02568,-0.798,0.0711
CG31872,DRSC02572,-0.964,-1.17
Or19b + Or19a,DRSC22604,0.696,1.17
CG17300,DRSC10260,-0.6,0.0421
RpS23,DRSC07169,4.46,12
CG12106,DRSC17805,0.251,-0.553
Rdh,DRSC08063,1.08,-0.243
Rdh,DRSC08434,0.0223,1.03
CG4691,DRSC01950,0.393,0.679
CG9801,DRSC16568,1.35,0.797
Polr2F,DRSC12366,-1.29,-0.173
CG17508,DRSC07771,-0.949,-0.258
pasi1,DRSC16299,0.0701,1.62
pasi1,DRSC22385,0.485,-0.78
Prm,DRSC08941,0.632,1.79
Prm,DRSC08942,-0.587,-1.16
Prm,DRSC11255,0.635,0.496
CG32240,DRSC08093,-0.318,-0.00954
CG11825,DRSC06090,0.392,-1.58
CG14219,DRSC19576,0.423,-0.57
Lcp4,DRSC07458,-0.55,0.1
Tango5,DRSC18023,-2.48,-1.32
CG4661,DRSC19910,0.763,0.884
CG11885,DRSC00329,-2.09,0.264
Iml1,DRSC08249,0.0203,
ATPsynF,DRSC04482,0.836,2.87
Zdhhc8,DRSC18044,-0.617,-1.33
Zdhhc8,DRSC18122,0.147,-1.48
RpL17,DRSC18293,7.56,2.21
CG11590,DRSC19411,0.881,-0.514
yip7,DRSC11410,1.58,1.44
Arr1,DRSC01867,0.474,-0.388
ppk13,DRSC02382,-0.673,1.63
CG14154,DRSC10156,0.716,-0.418
Lrpprc2,DRSC18605,-0.553,
CG33296,DRSC00998,0.893,1.52
CtsL4,DRSC02849,-0.886,-0.247
alpha-Est4aPsi,DRSC12473,-0.055,0.746
PK2-R2,DRSC16448,-0.364,-2.65
CG8119,DRSC20083,0.63,-1.05
CG1662,DRSC19754,4.26,1.21
TbCMF46,DRSC02221,-0.381,0.29
Ing5,DRSC03188,0.061,1.75
Spn47C,DRSC07030,-0.212,1.83
Dcr-1,DRSC15646,0.731,-0.658
Pabp2,DRSC07501,7.99,4.02
CG13014,DRSC19533,1.33,-0.00135
Sclp,DRSC19851,-2.82,-0.249
CG12655,DRSC20678,0.96,-0.313
Gk1,DRSC08533,1.02,0.3
Gk1,DRSC08534,-1.82,-0.711

Targets above whose gene name begins with S or s (6):
gene,amplicon,"droplet/nuclear area B-score, replicate 1","droplet/nuclear area B-score, replicate 2"
Sfp93F,DRSC13505,-2.19,-3.76
S-Lap3,DRSC10956,0.13,0.104
Start1,DRSC04384,0.204,0.484
Strip,DRSC08194,-0.37,-0.0997
Spn47C,DRSC07030,-0.212,1.83
Sclp,DRSC19851,-2.82,-0.249
